Measurements as given in PubChem BioAssay AID662 (National Center for Advancing Translational Sciences (NCATS), 2007).
“And” between values parts separate entries of the source, which are not always exact repeats. Equal entries are not always repeated. Some of the results follow. The main result of the screen is listed elsewhere. These columns were measured beside it and carry no call. Most of these compounds were active or inconclusive in the main read-out, so they are no random draw. The note in brackets gives the kind of curve behind each potency; many fits are weak.

Assay: Cell signaling CRE-BLA (Fsk stim)
Conditions: CHO CRE-bla reporter (cAMP response element driving beta-lactamase), forskolin EC10, beta-lactamase ratio; measured here: 460 nm blue channel
Procedure, shortened: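 Titrated compounds plus EC10 NKH 477 on CHO CRE-bla cells, 3 h, 37 °C. CCF4, 2 h RT. Ratio 460/530 nm → AC50.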
In the case of `O=C(Cn1cnc2c(cnn2-c2ccc(F)cc2)c1=O)OCc1ccccc1`, the AC50 is reported as 0.126 µM [falling, full curve, poor fit].
In the case of `Cc1ccccc1-n1c(SCc2ccccn2)nc2n[nH]c(C)c2c1=N`, the AC50 is reported as 0.398 µM [rising, full curve].
For `COc1ccc(-c2cc(OC)c3c(C)oc(C)c3c(=O)c2)cc1OC`, the AC50 was 12.6 µM [rising, partial curve].
In the case of `O=C(Cc1ccc(-n2cccc2)cc1)N1CCN(c2ccccc2F)CC1`, the AC50 is reported as 25.1 µM [rising, single point].
With `Cc1ccccc1-c1nc(CN2CCC(C(=O)NCc3cccnc3)CC2)c(C)o1` the AC50 was 7.94 µM [falling, partial curve].
In the case of `C[C@H]1C=C2C=C[C@H](C)[C@H](CC[C@@H]3C[C@@H](O)CC(=O)O3)[C@H]2[C@@H](OC(=O)[C@@H](C)CCO)C1`, the AC50 is reported as 25.1 µM [rising, single point].
In the case of `Cc1c(OCC(F)(F)F)ccnc1CS(=O)c1nc2ccccc2[nH]1` (stereo not drawn), the AC50 is reported as 25.1 µM [rising, single point] and 12.6 µM [rising, single point].
With `C=CCNc1nc(NCc2ccco2)nc(OCC)n1` the AC50 was 10 µM [rising, single point].
In the case of `COc1ccc(C2(C)NC(=O)N(Cc3cc(Cl)cc4c3OCOC4)C2=O)cc1OC` (stereo not drawn), the AC50 is reported as 3.98 µM [rising, partial curve].
In the case of `CC(C)c1ccc(S(=O)(=O)c2n[nH]n3c2nc(=O)c2ccccc23)cc1`, the AC50 is reported as 0.501 µM [rising, full curve].
For `COc1cccc(NC(=O)Cn2nnc(C(=O)Nc3ccccc3)c2N)c1`, the AC50 was 6.31 µM [falling, partial curve, poor fit].
In the case of `NC(=O)COc1ccc(NC(=O)OCc2ccccc2)cc1`, the AC50 is reported as 0.00316 µM [falling, full curve, poor fit].
With `CC1CN(C(=O)COC(=O)c2cccs2)CC(C)O1` (stereo not drawn) the AC50 was 5.01 µM [falling, full curve].
With `CSc1ccccc1NC(=O)c1cc(-c2cccs2)on1` the AC50 was 31.6 µM [falling, single point].
In the case of `Cc1ccccc1NC(=O)CSC(N)=O`, the AC50 is reported as 0.501 µM [falling, full curve].
With `CCn1c2ccccc2c2cc(NC(=O)CSc3nnc(C4CC4)n3Cc3ccco3)ccc21` the AC50 was 15.8 µM [falling, single point].
For `COCc1nc(-c2cc(OC)c(OC)c(OC)c2)no1`, the AC50 was 25.1 µM [rising, single point].
For `COc1ccc(-c2nnc(CSc3ncnc4sc5c(c34)CCC5)o2)cc1OC`, the AC50 was 2.51 µM [rising, full curve].
With `CCc1ccc(CNC(=O)CN2C(=O)COc3ccccc32)cc1` the AC50 was 0.01 µM [falling, full curve, poor fit].
With `Cc1cc(-c2ccccc2)n2ncc(C#N)c2n1` the AC50 was 12.6 µM [rising, partial curve].
With `O=S(=O)(c1cccc(-c2csc(-c3cccnc3)n2)c1)N1CCCCC1` the AC50 was 5.01 µM [rising, single point].
For `COc1nc(-c2ccccc2)ccc1-c1noc(-c2cccnc2)n1`, the AC50 was 3.16 µM [rising, full curve].
With `CN(C)c1cc(-c2cccc(NS(C)(=O)=O)c2)ncn1` the AC50 was 2.51 µM [rising, partial curve, poor fit].
In the case of `C=C(C)CC1Nc2ccccc2NC1CC(=C)C` (stereo not drawn), the AC50 is reported as 15.8 µM [rising, single point].
For `COc1ccc(CC(=O)Nc2cc(Cl)ccc2O)cc1`, the AC50 was 12.6 µM [rising, single point].
In the case of `COc1cc(C)c(CN2CCCCC2CO)cc1C` (stereo not drawn), the AC50 is reported as 0.251 µM [rising, partial curve].
With `CCn1nc(C(=O)OCc2c(C)noc2C)c2ccccc2c1=O` the AC50 was 20 µM [rising, partial curve].
For `C=CCSc1nc2c(c(=O)[nH]1)C(C(C)C)C(C#N)=C(N)O2` (stereo not drawn), the AC50 was 12.6 µM [rising, single point].
For `Oc1oc(-c2ccco2)nc1C=Nc1ccccc1`, the AC50 was 20 µM [falling, single point].
For `CCOC(=O)c1[nH]nc2c1C(=O)N(Cc1ccccc1)C2=O`, the AC50 was 20 µM [falling, partial curve, poor fit].
With `CN(C)c1ccc(-c2cc(NCc3cccnc3)ncn2)cc1` the AC50 was 10 µM [rising, partial curve].
For `O=C(c1ccc(Cl)cc1)C1C2C(=O)N(c3ccccc3)C(=O)C2C2CCCN21` (stereo not drawn), the AC50 was 3.16 µM [falling, full curve].
In the case of `COc1ccc(Cl)cc1NC(=O)c1cnc2sccn2c1=O`, the AC50 is reported as 15.8 µM [rising, single point].
For `Cc1ccccc1OCc1nc(-c2ccc(NC(=O)c3ccc4c(c3)OCO4)cc2)no1`, the AC50 was 25.1 µM [falling, single point].
For `N#Cc1cnc(SCCc2ccccc2)nc1N`, the AC50 was 12.6 µM [rising, single point].
In the case of `CC(C)n1c(SCC(=O)N2CCCC2)nc2c1c(=O)n(C)c(=O)n2C`, the AC50 is reported as 12.6 µM [rising, partial curve].
In the case of `CCOC(=O)C1CCN(C(=O)C2(NC(=O)Nc3ccccc3Cl)CCCCC2)CC1`, the AC50 is reported as 0.00794 µM [falling, partial curve, poor fit].
With `O=[N+]([O-])c1ccc(S(=O)(=O)Cc2ccccc2)c([N+](=O)[O-])c1` the AC50 was 2.51 µM [falling, partial curve].
With `Cc1cccn2c(=O)c3cc(C(=O)N4CCc5ccccc5C4)n(C)c3nc12` the AC50 was 0.398 µM [rising, partial curve].
In the case of `COc1cccc(C2=NOC(C(=O)NC(C)(C)C)C2)c1` (stereo not drawn), the AC50 is reported as 2.51 µM [falling, partial curve, poor fit].
With `Cc1cccc(NC(=O)CSC(N)=O)c1C` the AC50 was 15.8 µM [falling, single point].
With `COc1ccc(CCNS(=O)(=O)c2cccc(S(=O)(=O)N3CCCC3)c2)cc1OC` the AC50 was 15.8 µM [rising, partial curve].
With `CC(C)(C)n1nnnc1CN1CCC(NC(=O)NC2CCCCC2)CC1` the AC50 was 0.01 µM [falling, full curve, poor fit].
For `CCCc1nc(N)c(C#N)c(-c2ccco2)c1CC`, the AC50 was 10 µM [rising, partial curve].
For `O=C(NC1CCS(=O)(=O)C1)c1cccc(S(=O)(=O)N2CCCCC2)c1` (stereo not drawn), the AC50 was 10 µM [rising, single point].
With `COC(=O)c1cc(NCc2c(F)cccc2Cl)ccc1N1CCOCC1` the AC50 was 12.6 µM [rising, single point].
For `CCC(C)(C(=O)NC1CCCC1)N(C(=O)c1cnccn1)c1c(C)n(C)n(-c2ccccc2)c1=O` (stereo not drawn), the AC50 was 12.6 µM [falling, partial curve, poor fit].
With `Cc1c2c(nc3c(C(=O)NC4CC4)cnn13)CCCC2` the AC50 was 12.6 µM [rising, partial curve].
In the case of `Cc1ccc(-n2c(CSc3nc(C)cc(C)n3)nnc2SCC(=O)N2CCCC2)cc1`, the AC50 is reported as 20 µM [rising, single point].
For `OCCNc1nc(C2CC2)nc2c1nnn2Cc1ccccc1Cl`, the AC50 was 12.6 µM [rising, partial curve].
In the case of `O=C1CCN2C=Nc3cccc4ccc1c2c34`, the AC50 is reported as 10 µM [rising, partial curve].
For `COc1ccc(CCNC(=O)CCN2C(=O)C(C)Oc3ccc(C)cc32)cc1OC` (stereo not drawn), the AC50 was 7.94 µM [rising, partial curve].
In the case of `O=c1c(-c2cccs2)nc2cnc(N3CCNCC3)nc2n1Cc1cccs1`, the AC50 is reported as 1.58 µM [rising, full curve].
For `Cc1cc(NC(=O)c2cc3nc4c(c(C(F)(F)F)n3n2)CCc2ccccc2-4)no1`, the AC50 was 0.501 µM [rising, full curve].
With `CCCc1cc(=O)n2c(nc3ccccc32)[nH]1` the AC50 was 12.6 µM [rising, partial curve].
For `CCOCCCNC(=O)c1c[nH]c2ccc(S(=O)(=O)Nc3cccc(OC)c3)cc2c1=O`, the AC50 was 0.00316 µM [falling, full curve, poor fit].
For `CCC(C)OC(=O)C1=C(C)NC(=O)NC1c1ccc(F)cc1` (stereo not drawn), the AC50 was 10 µM [rising, single point].
In the case of `Cc1nc2cnc(Nc3ccccc3)nc2n(C2CC2)c1=O`, the AC50 is reported as 6.31 µM [rising, partial curve].
With `CCOc1ccc(CCNS(=O)(=O)c2cnc[nH]2)cc1OCC` the AC50 was 5.01 µM [rising, partial curve].
For `Cc1nn(-c2ccc(F)cc2)c2sc(C(=O)N3CCCCCC3)cc12`, the AC50 was 1.26 µM [rising, partial curve].
With `COCCNC(=O)c1nn(-c2cc(OC)cc(OC)c2)c(=O)c2ccccc12` the AC50 was 15.8 µM [rising, partial curve].
In the case of `CN(C(=O)c1cnccn1)c1nnc(-c2cccnc2)s1`, the AC50 is reported as 0.794 µM [falling, single point].
With `CC1Cc2ccccc2N1c1ncnc2c1nnn2Cc1ccccc1` (stereo not drawn) the AC50 was 5.01 µM [rising, single point].
With `CCOC(=O)c1cnn2c(C(F)(F)F)cc(-c3cn(C)nc3C)nc12` the AC50 was 10 µM [rising, partial curve].
For `COc1ccc(-n2c(Cc3cccn3C)nnc2SCC(=O)Nc2ccc3c(c2)OCO3)cc1`, the AC50 was 7.94 µM [falling, partial curve].
With `CN1CCN(c2ncc3nc(-c4ccccc4)c(=O)n(C)c3n2)CC1` the AC50 was 12.6 µM [rising, partial curve].
In the case of `CCOC(=O)C1CCN(c2c(NCc3ccc(C(=O)NC(C)CC)cc3)c(=O)c2=O)CC1` (stereo not drawn), the AC50 is reported as 12.6 µM [rising, partial curve].
In the case of `CCOC(=O)Nc1ccc2c(c1)N(C(=O)CCN(C)C)c1ccccc1S2`, the AC50 is reported as 10 µM [falling, partial curve].
